For at least one compound, name, drawing or mass did not settle the structure.
What was measured:
Format in all cases: in vivo, human
[1] = Essential fatty acid parameters in plasma, 6-week AAMI study (Example 2); conditions: plasma and RBC; 1, 2, and 4 g treatment groups
Method: A single-center, 6-week, double-blind, randomized, parallel-group, placebo-controlled, dose-ranging pilot study was performed to evaluate the efficacy, tolerability, and safety of >96% E-EPA in subjects with subjective and objective memory impairment according to generally accepted criteria for Age-Associated Memory Impairment (“AAMI”). The primary objective of the study was to determine the effect of >96% E-EPA 1 g, 2 g, and 4 g daily, compared to placebo, on cognitive performance in subjects with AAMI.
Ninety-four subjects were randomized into one of six groups: 1 g E-EPA daily (n=23), 2 g E-EPA daily (n=24), 4 g E-EPA daily (n=24), 1 g placebo daily (n=7), 2 g placebo daily (n=8), and 4 g placebo daily (n=8). E-EPA was provided as 500 mg soft gel capsules containing >96% E-EPA and 0.2% dl-α-tocopherol as an antioxidant. Placebo capsules contained 467 mg of liquid paraffin and 0.2% dl-α-tocopherol. Ninety-one subjects completed the study. Two subjects in the 2 g E-EPA group and one subject in the 2 g placebo group discontinued the study.
Blood samples (10 mL) were collected at Visit 1 (screening) and at Visits 4, 5, and 6. […] Lipid was extracted from plasma, serum, and RBC suspensions and converted into fatty acid methyl esters which were analyzed by gas chromatography to give fatty acid profiles as micrograms fatty acid per gram of sample ([…]) and normalized area percent. […]

[2] = test system: patients with reduced kidney function (eGFR<90 mL/min/1.73 m^2) and hsCRP≥2.0 mg/L; assay: Post-hoc ANCHOR analysis, reduced kidney function and hsCRP≥2.0 mg/L (Example 6); conditions: 4 g/day; 12 weeks; compared to placebo
Method: (§1) CVD-related (e.g., atherogenic) parameters were analyzed in a post-hoc study of 152 patients from the multi-center, placebo-controlled, randomized double-blind, 12-week study described in Example 1. These 152 patients have reduced kidney function (e.g., eGFR<90 mL/min/1.73 m^2 for ≥3 months) and hsCRP≥2.0 mg/L.
72 patients were randomized to E-EPA and 80 patients were randomized to placebo. In total, atherogenic parameters were analyzed in all 152 patients, 54% of which were male and 99% of which were white. The mean age of the 152 patients was 64 years old.
The primary objective of this post-hoc study, was to determine if and how 4 g of daily of >96% E-EPA, compared to placebo, affects patients with reduced kidney function, elevated hsCRP (e.g, hsCRP≥2.0 mg/L), and high triglyceride levels. The secondary objective was to determine if and how 4 g daily of >96% E-EPA, compared to placebo, affected CVD-related parameters in patients with a high risk for CVD and fasting TG levels 200 mg/dL and <500 mg/dL, despite treatment to LDL-C goal on statin therapy. […] CVD-parameters were analyzed for median difference in percent change from baseline to week 12 in subjects receiving 4 g/day of E-EPA and those receiving the placebo.
The median difference in lipid/lipoprotein, apolipoprotein, and inflammatory parameters were determined from baseline to week 12 for 4/g day of E-EPA compared to placebo.

[3] = test system: patients with chronic kidney disease (eGFR<60 mL/min/1.73 m^2); assay: Post-hoc ANCHOR analysis, chronic kidney disease: lipid, lipoprotein, oxidation and inflammation parameters (Example 7); conditions: CKD; 4 g/day vs placebo; week 12
Method: as §1, with “55” for “152”, “chronic” for “reduced”, “disease” for “function”, “eGFR<60” for “eGFR<90”, “months). There was no lower limit of eGFR specified.” for “months) and hsCRP≥2.0 mg/L.”
19 patients were randomized to E-EPA and 36 patients were randomized to placebo. One patient in each group discontinued and was excluded from efficacy analyses (but not safety analyses). EPA levels in plasma and RBC were measured in 23 of the 55 patients. These measurements were taken on 7 of the patients randomized to E-EPA and on 16 of the patients that were randomized to the placebo.
The primary objective of this post-hoc study, which is based on an intention to treat, was to determine if and how 4 g daily of >96% E-EPA affects patients with stage 3 chronic kidney disease (e.g., eGFR<60 mL/min/1.73 m^2 for ≥3 months). The secondary objective was to determine if and how 4 g daily of >96% E-EPA, compared to a placebo, affected CVD-related parameters in patients with a high risk of CVD and fasting TG levels ≥[…] and <500 mg/dL, despite LDL-C goal on statin therapy. […] CVD-parameters were analyzed for median difference in percent change from baseline to week 12 in subjects receiving 4 g/day of E-EPA and those receiving the placebo. […]

CC/C=C\C/C=C\C/C=C\C/C=C\C/C=C\CCCC(=O)OCC [E-EPA, ethyl eicosapentaenoate]
AA, DHA, and DGLA values from baseline to day 42 [1]: decreased substantially
LDL-C levels [2]: without increasing LDL-C levels
other atherogenic and inflammatory parameters [2]: significantly improved
hsCRP Median Difference in % Change From Baseline vs Placebo [3]: no statistically significant changes

Reference: patent US10966951B2, “Compositions and methods for lowering triglycerides in a subject having reduced kidney function” (Amarin Pharmaceuticals Ireland Limited, priority 2017, dated 2021)
